SMILES strings stand for the structures. The list shows a part of the results.

The assay relates to T1, CTL2-GFP (C. trachomatis L2/434/Bu, GFP-expressing).
T1 construct: L2/434/Bu, GFP-expressing
On the set-up: species or system HeLa; Intracellular C. trachomatis growth in HeLa cells, bulk GFP fluorescence relative to DMSO. To be noted: bulk GFP, single well; 28.5 h, 10 µM; inhibitor.
For `Cc1nn(C)cc1C(=O)N1CCC2(C/C=C/CCOc3ccccc3C(=O)NCCCNC2=O)CC1` [CBK292154], the “% of control remaining” value stood at 81.3213%. Take `O=C(c1ccccc1)c1nnsc1-c1ccccc1` [CBK008193]: the “% of control remaining” value is 120.289%. The same measure for `N/C(=N\C(=O)CN1C(=O)C2CCCCC2C1=O)Nc1nc2ccccc2s1` (stereo not shown) [CBK263877]: 99.0417%; for `O=C1Cc2c(ccc3ccccc23)C2(CCN(CC3CCCCO3)CC2)N1` (stereo not shown) [CBK039395]: 110.641%. Under `C#CCNC(=O)c1nn(Cc2ccc(S(=O)(=O)N(C)OC)cc2)c2ccccc12` [CBK047985] stands 105.46%. Under `CC(Cn1cnc2ccccc21)C(=O)N1CCCCC1CN(C)C` (stereo not shown) [CBK282191] stands 138.499%. `Cc1cc(C(=O)NCCn2ccc(C)n2)c2cccc(Cl)c2n1` [CBK282549]: the “% of control remaining” value came out at 128.328%.

As to `Cc1ccccc1N1CCC(CNC(=O)CCc2ccnn2C)C1` (stereo not shown) [CBK306543], the “% of control remaining” value came out at 156.161%. The same measure for `O=c1[nH]c(=O)c2cc(S(=O)(=O)NC3(c4ccccc4)CCCC3)ccc2[nH]1` [CBK286378]: 110.739%; for `CS(=O)(=O)Nc1cccc(C(=O)O)c1` [CBK160404]: 103.121%; for `COCCSc1nnc(NS(=O)(=O)c2ccc(F)cc2)s1` [CBK144919]: 119.214%. Under `O=C(CSc1nnc(-c2ccco2)[nH]1)Nc1cccc(Cl)c1` [CBK293990] stands 112.591%; under `O=C1CN(C(=O)NC(c2ccccc2)c2ccccc2)CCN1` [CBK155853], 161.052%. The same measure for `CCOC(=O)c1c(N)sc(C(=O)Nc2cccc([N+](=O)[O-])c2)c1C` [CBK066829]: 150.875%; for `CCOc1ccc(C(=O)Nc2ccc(-c3nc4cc(C)c(C)cc4o3)cc2)cc1[N+](=O)[O-]` [CBK262818]: 100%; for `O=C1CCC(=O)N1CCOc1nccnc1OC1CCN(Cc2ccc(C(F)(F)F)cc2)CC1` [CBK084341]: 107.38%. With `CCOC(=O)C1(C2CCCCC2)CCN(C(=O)c2cccc(C(F)(F)F)c2)CC1` [CBK136920], the “% of control remaining” value turned out to be 98.2335%. For `O=C(C1CCCN(C2CCN(Cc3ccccc3)CC2)C1)N1CCN(c2ccccc2)CC1` (stereo not shown) [CBK265440G], the “% of control remaining” value is 124.658%.

In the case of `O=C(Nc1ccc2nc(-c3ccc(-c4nc5ccc(NC(=O)c6cccs6)cc5[nH]4)cc3)[nH]c2c1)c1cccs1` [CBK261590], the “% of control remaining” value turned out to be 95.8766%. Regarding `COC(=O)c1ccsc1NC(=O)CN1CCN(Cc2ccc3c(c2)OCO3)CC1` [CBK267940], the “% of control remaining” value came to 110.497%. Under `O=C(NCc1cccnc1-n1cccn1)c1c[nH]c(C(=O)N2CCCC2)c1` [CBK298263] stands 112.737%; under `COc1ccc(C(C)NC2CCN(c3ccccn3)CC2)cc1F` (stereo not shown) [CBK304146], 117.428%. For the compound `COC(=O)c1ccccc1OC(=O)COc1ccc(Cl)cc1Br` [CBK268733], the “% of control remaining” value is listed as 138.052%.

As for `Cc1ccc2c(c1)cc(C(=O)N1CCC(C(=O)NCCc3ccc(Cl)cc3)C1)n2C` (stereo not shown) [CBK285926], the “% of control remaining” value is reported as 120.934%. The same measure for `O=C(C[C@@H]1O[C@H](CNS(=O)(=O)c2ccccc2)[C@@H](O)[C@H]1O)N1CCc2ccccc21` [CBK288916]: 111.15%; for `Cc1ccc(-n2c(SCC(=O)Nc3ccccc3C#N)nnc2-c2cc(Br)ccc2O)c(C)c1` [CBK268743]: 76.2951%; for `COC1C(O)C(CO)OC1n1cc(F)c(=S)[nH]c1=O` (stereo not shown) [CBK201168]: 152.523%. Under `O=c1c(-c2nc3ccccc3s2)coc2c(CN3CCCCC3)c(O)ccc12` [CBK262161] stands 104.129%; under `Cc1c(C(=O)NC2CCCN(c3ncccn3)C2)cnn1C(C)(C)C` (stereo not shown) [CBK305652], 115.199%. Under `CCOc1ccc(-c2cncc(N[C@@H](C)c3ccccc3)n2)cc1` [CBK065720] stands 160.553%; under `CCc1c(C)nc2c(C(=O)NCCOC)cnn2c1C` [CBK162143], 106.571%; under `Cc1c(C(=O)Nc2sc3c(c2C(=O)NCc2cccnc2)CCC3)oc2ccccc12` [CBK269491], 159.642%. Turning to `CC(=O)Nc1cccc(C(=O)OCC(=O)N2CCC(C)CC2)c1` [CBK305905], the “% of control remaining” value was found to be 110.162%. The same measure for `CN(C)CCN(C)c1cccc(/C=C/c2ccccc2)n1` [CBK036826]: 125.112%; for `CC(C)(C)OC(=O)N1CCN(c2ccnc(Cl)n2)CC1` [CBK002095]: 96.207%; for `COCC(=O)N1CC[C@H](c2nnc(-c3ccc(C)cc3)o2)C1` [CBK289410]: 116.869%. Under `CC(=O)Nc1ccc(S(=O)(=O)Nc2ccc(C(=O)N3CCOCC3)cc2)cc1` [CBK034564] stands 87.8908%; under `COC(=O)NC(NC(=O)OC)C(=O)c1ccccc1` [CBK020208], 125.105%; under `COc1ncccc1-c1cccnc1-n1ccnc1` [CBK176872], 137.213%. Under `NNC(=O)Nc1ccc(Cc2ccc(NC(=O)NN)cc2)cc1` [CBK262017] stands 138.561%. Turning to `COc1ccc([C@H]2CN(C(C)=O)[C@@H]3CCN(CC4CC4)C[C@H]23)cc1` [CBK285502], the “% of control remaining” value stood at 108.131%. Under `CC(Sc1ccccc1)C(=O)NCCN1CCOCC1` (stereo not shown) [CBK269332] stands 133.505%; under `Cc1noc(C)c1S(=O)(=O)NCc1cc(C)n(C)n1` [CBK062155], 91.814%; under `O=C(Nc1ccccc1)NC1CC2CCC(C1)N2Cc1nnnn1Cc1ccco1` (stereo not shown) [CBK085071], 120.143%. The same measure for `COc1ccc(CC(=O)N2CCC(c3cccc(Cc4ccccc4C)n3)CC2)cc1` [CBK286232]: 110.994%; for `C[C@]12CN(C(=O)C3CC3)C[C@H]1NC(=O)c1ccccc1C2=O` [CBK281660]: 105.394%; for `O=[N+]([O-])c1ccccc1CN1CCN(Cc2cccc(Oc3ccccc3)c2)CC1` [CBK264307]: 110.001%. Consider `CCc1cc(O)n2nc(C)c(-c3cccs3)c2n1` [CBK283730], for which the “% of control remaining” value is listed as 125.007%. Under `O=C(CC1c2ccccc2Oc2ccccc21)Nc1ccc(Cc2ccncc2)cc1` [CBK263271] stands 110.81%. Under `O=C1CSC2(CCCCC2)N1Nc1ccccc1` [CBK020047] stands 111.174%; under `CC(C)c1ccc(S(=O)(=O)Nc2cc(F)c(F)c(F)c2)cc1` [CBK045028], 60.6031%.

As for `O=P(O)(CN1CCCCCC1)CN1CCCCCC1` [CBK262311], the “% of control remaining” value is 100%.

Turning to `O=S(=O)(c1ccccc1)c1nc(-c2ccco2)oc1NCc1cccnc1` [CBK287610], the “% of control remaining” value was found to be 115.8%.

As for `C=CCNC(=O)c1ccc(-c2cccc(N(C)C)c2)nc1NCc1cccnc1` [CBK076566], the “% of control remaining” value is 170.873%. The same measure for `CCn1cc(C(=O)O)c(=O)c2cnc(N3CCN(C(=S)Nc4ccc5c(c4)OCO5)CC3)nc21` [CBK267930]: 100.419%. With `CC(=O)N1CCC[C@H]2NC(=O)CNC(=O)C3(C/C=C/C[C@H]21)CCN(Cc1cc[nH]n1)CC3` [CBK292164], the “% of control remaining” value is given as 90.1052%.

As for `COc1ccc(Oc2nccnc2N2CCN(CCOc3ccccc3)CC2)cc1OC` [CBK083061T], the “% of control remaining” value is given as 130.118%. Under `CN1CCN(C)C(COc2nc3cc(Cl)c(Cl)cc3nc2N2CCCC2)C1` (stereo not shown) [CBK115294] stands 107.274%; under `Cc1cc(C(=O)N2CCc3c(sc4ncnc(N)c34)C2)c(C)s1` [CBK304980], 137.869%; under `CCCOc1ccc(-c2nn(-c3ccccc3)cc2/C=C2\SC(=S)N(CC(=O)O)C2=O)cc1` [CBK264525], 107.116%. `COc1cc(NC(=O)N2CCC(C(=O)O)CC2)cc(OC)c1OC` [CBK156076]: the “% of control remaining” value was 95.0031%. Under `Cc1ccccc1Cc1cccc(C2CCN(S(=O)(=O)c3cn(C)nc3C)CC2)n1` [CBK286141] stands 109.118%; under `COc1ccc(C(C)C)cc1-c1nccnc1N[C@@H](CO)C(C)C` [CBK036711], 108.05%; under `CCOC(=O)N/N=C1\CCCCC1CC` (stereo not shown) [CBK016112], 143.22%.

For the compound `CC(=O)Nc1ccc(C(=O)Nc2ccc(S(N)(=O)=O)cc2)cc1` [CBK261600], the “% of control remaining” value came to 115.782%. The same measure for `COC(=O)Nc1ncc(CN2C(=O)c3ccccc3C2=O)s1` [CBK268434]: 82.0335%.

Turning to `COCC(=O)Nc1ccc([C@@H](O)[C@H]2COCC(=O)N2C)cc1` [CBK289058], the “% of control remaining” value is 143.563%. Under `NS(=O)(=O)c1ccc(NCc2ccccc2OCc2ccccc2F)cc1` [CBK268935] stands 101.752%; under `O=C(Cc1ccccc1F)N1CCC(n2cnc3cccnc32)CC1` [CBK283635], 122.647%; under `COc1ccc(-c2ccc(OC)cc2C(=O)Nc2cccc(-n3cccn3)c2)cc1` [CBK285818], 139.216%. The same measure for `c1ccc(-c2onc3cc4c(cc23)OCCO4)cc1` [CBK287869]: 116.247%; for `CCCc1nnc2sc(C3CCC(=O)N(CC(C)C)C3)nn12` (stereo not shown) [CBK307207]: 132.545%. Under `CC(Sc1nc2ccccc2[nH]1)C(=O)O` (stereo not shown) [CBK263063] stands 99.2591%; under `Oc1ccc(-c2cncc(-c3ccc(F)cc3)n2)cc1` [CBK123794], 120.618%.

As for `Cc1nnc(SCc2cc(=O)[nH]c(N3CCN(C)CC3)n2)s1` [CBK270106], the “% of control remaining” value is reported as 156.188%. The same measure for `CCOc1cc(/C=N/O)c(Br)cc1O` [CBK288359]: 170.865%.
